No constants are given. Whether binding was seen depends on the method and setting. Some binding calls cover weakened binding; strength is not graded here.
B1: Smad4, Q13485 1-552 (protein)
chain: MDNMSITNTPTSNDACLSIVHSLMCHRQGGESETFAKRAIESLVKKLKEKKDELDSLITAITTNGAHPSKCVTIQRTLDGRLQVAGRKGFPHVIYARLWRWPDLHKNELKHVKYCQYAFDLKCDSVCVNPYHYERVVSPGIDLSGLTLQSNAPSSMMVKDEYVHDFEGQPSLSTEGHSIQTIQHPPSNRASTETYSTPALLAPSESNATSTANFPNIPVASTSQPASILGGSHSEGLLQIASGPQPGQQQNGFTGQPATYHHNSTTTWTGSRTAPYTPNLPHHQNGHLQHHPPMPPHPGHYWPVHNELAFQPPISNHPAPEYWCSIAYFEMDVQVGETFKVPSSCPIVTVDGYVDPSGGDRFCLGQLSNVHRTEAIERARLHIGKGVQLECKGEGDVWVRCLSDHAVFVQSYYLDREAGRAPGDAVHKIYPSAYIKVFDLRQCHRQMQQQAATAQAAAAAQAAAVAGNIPGPGSVGGIAPAISLSAAAGIGVDDLRRLCILRMSFVKGWGPDYPRQSIKETPCWIEIHLHRALQLLDEVLHTMPIADPQPLD
B2: TRIM33 (tripartite motif-containing protein 33) (protein, UniProt Q9UPN9 1-1127)
chain: MAENKGGGEAESGGGGSGSAPVTAGAAGPAAQEAEPPLTAVLVEEEEEEGGRAGAEGGAAGPDDGGVAAASSGSAQAASSPAASVGTGVAGGAVSTPAPAPASAPAPGPSAGPPPGPPASLLDTCAVCQQSLQSRREAEPKLLPCLHSFCLRCLPEPERQLSVPIPGGSNGDIQQVGVIRCPVCRQECRQIDLVDNYFVKDTSEAPSSSDEKSEQVCTSCEDNASAVGFCVECGEWLCKTCIEAHQRVKFTKDHLIRKKEDVSESVGASGQRPVFCPVHKQEQLKLFCETCDRLTCRDCQLLEHKEHRYQFLEEAFQNQKGAIENLLAKLLEKKNYVHFAATQVQNRIKEVNETNKRVEQEIKVAIFTLINEINKKGKSLLQQLENVTKERQMKLLQQQNDITGLSRQVKHVMNFTNWAIASGSSTALLYSKRLITFQLRHILKARCDPVPAANGAIRFHCDPTFWAKNVVNLGNLVIESKPAPGYTPNVVVGQVPPGTNHISKTPGQINLAQLRLQHMQQQVYAQKHQQLQQMRMQQPPAPVPTTTTTTQQHPRQAAPQMLQQQPPRLISVQTMQRGNMNCGAFQAHQMRLAQNAARIPGIPRHSGPQYSMMQPHLQRQHSNPGHAGPFPVVSVHNTTINPTSPTTATMANANRGPTSPSVTAIELIPSVTNPENLPSLPDIPPIQLEDAGSSSLDNLLSRYISGSHLPPQPTSTMNPSPGPSALSPGSSGLSNSHTPVRPPSTSSTGSRGSCGSSGRTAEKTSLSFKSDQVKVKQEPGTEDEICSFSGGVKQEKTEDGRRSACMLSSPESSLTPPLSTNLHLESELDALASLENHVKIEPADMNESCKQSGLSSLVNGKSPIRSLMHRSARIGGDGNNKDDDPNEDWCAVCQNGGDLLCCEKCPKVFHLTCHVPTLLSFPSGDWICTFCRDIGKPEVEYDCDNLQHSKKGKTAQGLSPVDQRKCERLLLYLYCHELSIEFQEPVPASIPNYYKIIKKPMDLSTVKKKLQKKHSQHYQIPDDFVADVRLIFKNCERFNEMMKVVQVYADTQEINLKADSEVAQAGKAVALYFEDKLTEIYSDRTFAPLPEFEQEEDDGEVTEDSDEDFIQPRRKRLKSDERPVHIK

Protein sequences, listed by entry. Tags and fused reporters are not part of them.
UniProt P84022: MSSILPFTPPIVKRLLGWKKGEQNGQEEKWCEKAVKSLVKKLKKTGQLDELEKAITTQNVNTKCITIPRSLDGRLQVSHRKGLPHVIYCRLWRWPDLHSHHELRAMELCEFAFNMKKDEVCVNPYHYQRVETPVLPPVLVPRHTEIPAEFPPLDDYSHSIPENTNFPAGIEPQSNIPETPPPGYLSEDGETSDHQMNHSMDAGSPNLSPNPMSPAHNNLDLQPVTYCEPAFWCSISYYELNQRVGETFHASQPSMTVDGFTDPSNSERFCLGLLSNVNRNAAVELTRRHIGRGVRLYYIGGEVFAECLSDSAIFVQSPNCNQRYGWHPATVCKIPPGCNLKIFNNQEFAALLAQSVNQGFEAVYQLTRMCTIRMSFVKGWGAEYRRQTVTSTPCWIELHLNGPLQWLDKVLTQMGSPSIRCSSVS

Assays:
[1] = molecular target: Smad3 (human (endogenous in Jurkat T, THP-1, MCF-7, HaCaT)), P84022; assay: ELISA; plate coated with mouse anti-Smad3 antibody (1:500) as capture, blocked with 1% BSA; cell lysates (Jurkat T, THP-1, MCF-7, HaCaT; with or without 2 ng/ml TGF-β for 24 h) applied for 2 h; washed with TBST; Smad4 or TRIM33 bound to Smad3 detected with rabbit antibodies and HRP secondary antibody, absorbance at 492 nm; details: remark: other sources report otherwise
[2] = molecular target: Smad3 (human (endogenous in Jurkat T, THP-1, MCF-7, HaCaT)) (UniProt P84022); assay: as above

Row | Binder | binding [1] | binding [2]
1 | B1 | binds | –
2 | B2 | – | binds

Reference: publication PMC8866318
